Reference: paper PMC12884792
Read-outs that look alike come from different tables or passages of the source. These are yes or no findings as the source states them, for the method shown. Binding seen in cells or lysates may run through a third protein. Some entries that bind do so weakly or less than the wild type.

The chains behind the UniProt entries cited, without tags or fusion partners.
UniProt Q92830: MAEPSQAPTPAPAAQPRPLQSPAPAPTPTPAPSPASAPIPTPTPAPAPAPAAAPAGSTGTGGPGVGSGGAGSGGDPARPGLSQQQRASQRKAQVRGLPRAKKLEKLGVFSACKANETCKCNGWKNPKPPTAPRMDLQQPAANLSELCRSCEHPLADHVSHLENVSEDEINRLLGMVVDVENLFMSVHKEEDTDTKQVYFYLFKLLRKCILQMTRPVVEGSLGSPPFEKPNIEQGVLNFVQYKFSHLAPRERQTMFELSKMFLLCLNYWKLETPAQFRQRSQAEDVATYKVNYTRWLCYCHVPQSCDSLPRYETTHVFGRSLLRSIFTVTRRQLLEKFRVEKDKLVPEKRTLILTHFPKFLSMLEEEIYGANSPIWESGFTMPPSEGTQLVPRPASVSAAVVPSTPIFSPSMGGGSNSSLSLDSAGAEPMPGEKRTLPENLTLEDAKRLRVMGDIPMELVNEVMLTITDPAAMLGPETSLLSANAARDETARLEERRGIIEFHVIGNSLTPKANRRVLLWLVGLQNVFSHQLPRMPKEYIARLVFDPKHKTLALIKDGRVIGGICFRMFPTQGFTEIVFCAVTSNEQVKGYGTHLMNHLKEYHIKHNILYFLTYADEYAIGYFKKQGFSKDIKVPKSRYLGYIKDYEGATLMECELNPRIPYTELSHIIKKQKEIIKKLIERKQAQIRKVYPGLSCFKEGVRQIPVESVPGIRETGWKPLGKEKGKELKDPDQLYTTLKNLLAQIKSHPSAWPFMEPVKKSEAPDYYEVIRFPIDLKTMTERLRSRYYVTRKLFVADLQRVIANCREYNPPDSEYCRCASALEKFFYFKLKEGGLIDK

Tests used:
[1] = molecular target: B lymphocyte-induced maturation protein 1 (Blimp-1), endogenous in T cells (human (endogenous in primary CD8+ T cells)) (UniProt O75626); experiment: co-IP; endogenous proteins in lysates of ex vivo induced human CD8+CD103+ T cells, with or without CSC pretreatment; lysis in 150 mM NaCl, 50 mM Tris-HCl, 10% glycerol, 0.5-1% Triton X-100; antibody and protein A/G beads overnight at 4 °C; immunoblot
[2] = substrate: B lymphocyte-induced maturation protein 1 (Blimp-1), endogenous in T cells (human (endogenous in primary CD8+ T cells)) (UniProt O75626); experiment: as above; remark: listed apart in the source
Flag-Blimp-1 (WT) = Flag-Blimp-1 (WT) (UniProt O75626); experiment: co-IP; HEK293T cells transfected with Blimp-1 (WT or K128R), with or without acetate (15 mM) or shGCN5; lysis in 150 mM NaCl, 50 mM Tris-HCl, 10% glycerol, 0.5-1% Triton X-100; immunoblot
Flag-Blimp-1 K128R = Flag-Blimp-1 K128R (UniProt O75626); experiment: as above

Molecule: GCN5, endogenous in T cells (from UniProt Q92830 1-837) (enzyme)
- binding [1]: binds

Molecule: HDAC5, endogenous in T cells (from UniProt Q9UQL6 1-1122) (enzyme)
- binding [1]: binds

B1: LIS1, endogenous in T cells (protein, UniProt P43034 1-410)
chain: MVLSQRQRDELNRAIADYLRSNGYEEAYSVFKKEAELDVNEELDKKYAGLLEKKWTSVIRLQKKVMELESKLNEAKEEFTSGGPLGQKRDPKEWIPRPPEKYALSGHRSPVTRVIFHPVFSVMVSASEDATIKVWDYETGDFERTLKGHTDSVQDISFDHSGKLLASCSADMTIKLWDFQGFECIRTMHGHDHNVSSVAIMPNGDHIVSASRDKTIKMWEVQTGYCVKTFTGHREWVRMVRPNQDGTLIASCSNDQTVRVWVVATKECKAELREHEHVVECISWAPESSYSSISEATGSETKKSGKPGPFLLSGSRDKTIKMWDVSTGMCLMTLVGHDNWVRGVLFHSGGKFILSCADDKTLRVWDYKNKRCMKTLNAHEHFVTSLDFHKTAPYVVTGSVDQTVKVWECR
- binding [2]: binds

B2: LIS1 in HEK293T cells (protein, UniProt P43034 1-410)
chain: B1 chain
- binding (Flag-Blimp-1 (WT)): binds
- binding (Flag-Blimp-1 K128R): binds
